Results from publication PMC2917022.
These are yes or no findings as the source states them, for the method shown. In cells and extracts the contact can be indirect. Some entries that bind do so weakly or less than the wild type. Where a sequence is shown, tags or fusion partners need not be part of it.

By UniProt entry, the sequences of proteins in these tests, tags left out. Where a name states a change or a piece, a line headed by the entry shows the natural chain unless it says otherwise.
UniProt P49674: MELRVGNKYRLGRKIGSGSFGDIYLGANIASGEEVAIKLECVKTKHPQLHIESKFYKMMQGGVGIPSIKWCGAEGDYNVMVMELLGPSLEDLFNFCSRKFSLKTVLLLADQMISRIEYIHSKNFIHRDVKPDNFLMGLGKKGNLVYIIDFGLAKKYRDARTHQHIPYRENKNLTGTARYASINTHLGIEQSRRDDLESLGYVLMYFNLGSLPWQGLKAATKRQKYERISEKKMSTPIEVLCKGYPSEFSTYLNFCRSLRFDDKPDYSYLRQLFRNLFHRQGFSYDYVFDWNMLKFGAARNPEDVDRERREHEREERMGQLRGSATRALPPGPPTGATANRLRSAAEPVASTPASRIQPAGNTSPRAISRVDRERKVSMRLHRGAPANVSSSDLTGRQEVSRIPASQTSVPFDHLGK

How the values were obtained:
[1] = molecular target: T1, human Dvl3-Flag (Dishevelled 3) (human) (UniProt Q92997); test: co-IP; HEK293 cells co-transfected with CK1ε variant and Dvl3-Flag, lysed, immunoprecipitated with anti-Flag antibody, western blot
T1 sequence: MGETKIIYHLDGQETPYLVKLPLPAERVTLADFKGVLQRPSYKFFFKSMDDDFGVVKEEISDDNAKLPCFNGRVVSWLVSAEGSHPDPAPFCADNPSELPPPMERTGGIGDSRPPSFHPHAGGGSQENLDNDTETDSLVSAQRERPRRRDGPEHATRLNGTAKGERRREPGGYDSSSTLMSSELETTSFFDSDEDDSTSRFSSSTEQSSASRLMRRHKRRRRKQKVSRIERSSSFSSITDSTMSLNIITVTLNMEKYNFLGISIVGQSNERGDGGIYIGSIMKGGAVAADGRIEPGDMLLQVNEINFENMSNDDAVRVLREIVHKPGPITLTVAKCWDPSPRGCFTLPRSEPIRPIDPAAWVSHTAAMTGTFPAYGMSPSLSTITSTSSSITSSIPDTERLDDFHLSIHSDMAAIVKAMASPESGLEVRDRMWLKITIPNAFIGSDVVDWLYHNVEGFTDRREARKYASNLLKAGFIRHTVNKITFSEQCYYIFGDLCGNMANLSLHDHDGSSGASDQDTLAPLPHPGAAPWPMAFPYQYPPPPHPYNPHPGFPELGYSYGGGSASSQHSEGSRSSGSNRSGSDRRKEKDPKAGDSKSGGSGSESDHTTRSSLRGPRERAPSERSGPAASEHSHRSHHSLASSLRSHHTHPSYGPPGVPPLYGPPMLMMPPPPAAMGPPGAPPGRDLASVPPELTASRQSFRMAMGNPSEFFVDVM

[2] = molecular target: T2, mDvl2-Myc (Dishevelled 2) (mouse) (UniProt Q60838); test: co-IP; HEK293 cells co-transfected with CK1ε variant and Dvl2-Myc, lysed, immunoprecipitated with anti-Myc antibody, western blot
T2 sequence: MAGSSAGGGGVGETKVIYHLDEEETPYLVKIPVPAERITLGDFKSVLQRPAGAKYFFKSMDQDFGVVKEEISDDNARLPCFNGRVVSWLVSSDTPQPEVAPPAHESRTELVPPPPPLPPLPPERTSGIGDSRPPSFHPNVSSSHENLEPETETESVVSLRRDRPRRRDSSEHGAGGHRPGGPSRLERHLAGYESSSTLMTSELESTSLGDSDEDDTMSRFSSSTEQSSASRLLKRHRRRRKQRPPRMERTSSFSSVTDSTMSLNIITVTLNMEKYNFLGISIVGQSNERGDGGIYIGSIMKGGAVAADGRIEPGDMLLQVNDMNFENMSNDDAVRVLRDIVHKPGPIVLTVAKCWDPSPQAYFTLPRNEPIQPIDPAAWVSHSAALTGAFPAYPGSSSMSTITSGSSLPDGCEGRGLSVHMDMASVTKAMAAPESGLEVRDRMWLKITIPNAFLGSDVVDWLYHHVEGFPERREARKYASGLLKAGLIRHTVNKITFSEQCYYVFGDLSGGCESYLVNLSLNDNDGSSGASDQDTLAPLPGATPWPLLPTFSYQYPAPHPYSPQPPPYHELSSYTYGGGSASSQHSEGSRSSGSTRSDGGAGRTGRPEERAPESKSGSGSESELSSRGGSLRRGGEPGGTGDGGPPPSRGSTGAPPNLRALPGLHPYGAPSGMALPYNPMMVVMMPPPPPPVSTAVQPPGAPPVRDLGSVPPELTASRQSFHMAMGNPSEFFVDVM

For “wild-type (WT), full-length human casein kinase 1 epsilon (CK1ε) (from UniProt P49674 1-416) (enzyme)”, the binding [1] was “binds” and the binding [2] was “binds”.

With “CK1ε P6 mutant (L39Q) (from UniProt P49674 1-416) (enzyme)” the binding [1] was “binds” and the binding [2] was “binds”.

With “CK1ε P4 mutant (L39Q, L49Q, N78T) (from UniProt P49674 1-416) (enzyme)” the binding [1] was “binds” and the binding [2] was “binds”.

“CK1ε P3 mutant (L39Q, S101R) (from UniProt P49674 1-416) (enzyme)” was tested, and the binding [1] was “binds” and the binding [2] was “binds”.
